The values below come from PMC7600766.

For experiment [1], the target named is T1, PpiD on E. coli spheroplasts (E. coli (endogenous in BL21 (DE3))) (UniProt P0ADY1).
T1 sequence: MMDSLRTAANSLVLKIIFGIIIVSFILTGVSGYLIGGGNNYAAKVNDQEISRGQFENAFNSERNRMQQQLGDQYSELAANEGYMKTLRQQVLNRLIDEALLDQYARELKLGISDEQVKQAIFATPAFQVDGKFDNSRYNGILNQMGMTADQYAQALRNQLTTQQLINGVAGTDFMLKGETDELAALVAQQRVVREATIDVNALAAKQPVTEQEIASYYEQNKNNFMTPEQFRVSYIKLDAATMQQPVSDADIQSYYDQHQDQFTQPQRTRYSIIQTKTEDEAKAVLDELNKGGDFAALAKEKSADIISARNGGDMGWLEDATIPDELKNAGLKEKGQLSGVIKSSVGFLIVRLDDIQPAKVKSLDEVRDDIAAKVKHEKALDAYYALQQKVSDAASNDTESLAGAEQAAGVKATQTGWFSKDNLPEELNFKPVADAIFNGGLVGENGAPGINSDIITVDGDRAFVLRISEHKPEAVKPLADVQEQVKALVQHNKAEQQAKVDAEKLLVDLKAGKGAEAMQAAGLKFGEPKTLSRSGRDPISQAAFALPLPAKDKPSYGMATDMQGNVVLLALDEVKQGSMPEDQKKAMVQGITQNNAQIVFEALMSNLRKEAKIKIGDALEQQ
As to the kind of experiment: cross-linking; purified complex incubated with E. coli spheroplasts for 10 min with 0.5% formaldehyde at room temperature; affinity chromatography, SDS-PAGE, band of about 75 kDa analysed by MALDI; only the binder purified.

In experiment [2] the target is T2, PpiD-Strep, purified and reconstituted into proteoliposomes (E. coli) (UniProt P0ADY1).
T2 sequence: T1 sequence
As to the kind of experiment: co-sedimentation; purified PpiD in proteoliposomes (70% POPE, 30% POPG) incubated with the purified complex at room temperature for 10 min, sedimented by centrifugation; empty liposomes as control; both purified.

No constants are given. Whether binding was seen depends on the method and setting. Binding can be weak; no strength is given. For some assays here: Binding seen in cells or lysates may run through a third protein.

Turning to “gp5Cβ–gp5.4 complex (tip fragment of the T4 central spike complex) (bacteriophage T4)”, the binding entry in experiment [1] is reported as “binds”; in experiment [2] it was “binds weakly”.
